This passage reports binding results from patent US20120028271A1.

The chains behind the UniProt entries cited, without tags or fusion partners. Where a name states a change or a piece, a line headed by the entry shows the natural chain unless it says otherwise. Residues count along the entry.
UniProt P54252: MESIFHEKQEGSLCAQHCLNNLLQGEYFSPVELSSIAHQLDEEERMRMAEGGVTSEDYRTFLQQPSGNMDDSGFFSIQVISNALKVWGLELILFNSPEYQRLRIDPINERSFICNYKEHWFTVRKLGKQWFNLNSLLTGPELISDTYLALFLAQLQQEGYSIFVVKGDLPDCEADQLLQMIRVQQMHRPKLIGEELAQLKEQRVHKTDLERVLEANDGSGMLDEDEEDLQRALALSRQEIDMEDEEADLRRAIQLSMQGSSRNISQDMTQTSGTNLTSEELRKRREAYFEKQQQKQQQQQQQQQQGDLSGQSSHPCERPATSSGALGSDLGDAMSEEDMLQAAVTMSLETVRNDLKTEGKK
UniProt P08670, residues 2-466: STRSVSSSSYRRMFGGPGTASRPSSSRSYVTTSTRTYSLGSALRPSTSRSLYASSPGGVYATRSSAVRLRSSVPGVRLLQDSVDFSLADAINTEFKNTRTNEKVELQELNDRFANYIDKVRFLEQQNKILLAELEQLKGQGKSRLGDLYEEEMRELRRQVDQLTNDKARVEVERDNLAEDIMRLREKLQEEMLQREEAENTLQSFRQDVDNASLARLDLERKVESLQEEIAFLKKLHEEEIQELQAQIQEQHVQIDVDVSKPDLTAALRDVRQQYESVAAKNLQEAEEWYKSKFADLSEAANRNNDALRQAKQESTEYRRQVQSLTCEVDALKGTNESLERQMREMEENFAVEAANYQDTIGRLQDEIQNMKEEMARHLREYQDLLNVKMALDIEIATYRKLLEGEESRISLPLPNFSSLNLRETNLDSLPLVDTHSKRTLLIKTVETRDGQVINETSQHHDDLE
UniProt P54727: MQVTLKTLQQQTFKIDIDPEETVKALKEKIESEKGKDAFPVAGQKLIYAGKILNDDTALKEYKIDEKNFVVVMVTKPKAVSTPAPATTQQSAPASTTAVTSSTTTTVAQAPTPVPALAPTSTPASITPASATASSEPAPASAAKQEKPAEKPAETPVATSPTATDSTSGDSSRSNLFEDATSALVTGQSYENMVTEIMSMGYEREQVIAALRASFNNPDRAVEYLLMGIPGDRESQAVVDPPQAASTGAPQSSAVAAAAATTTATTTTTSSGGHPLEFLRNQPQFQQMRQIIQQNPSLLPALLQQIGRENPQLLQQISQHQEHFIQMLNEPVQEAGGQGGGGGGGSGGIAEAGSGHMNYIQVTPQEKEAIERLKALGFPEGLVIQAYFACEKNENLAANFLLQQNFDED
UniProt P54725: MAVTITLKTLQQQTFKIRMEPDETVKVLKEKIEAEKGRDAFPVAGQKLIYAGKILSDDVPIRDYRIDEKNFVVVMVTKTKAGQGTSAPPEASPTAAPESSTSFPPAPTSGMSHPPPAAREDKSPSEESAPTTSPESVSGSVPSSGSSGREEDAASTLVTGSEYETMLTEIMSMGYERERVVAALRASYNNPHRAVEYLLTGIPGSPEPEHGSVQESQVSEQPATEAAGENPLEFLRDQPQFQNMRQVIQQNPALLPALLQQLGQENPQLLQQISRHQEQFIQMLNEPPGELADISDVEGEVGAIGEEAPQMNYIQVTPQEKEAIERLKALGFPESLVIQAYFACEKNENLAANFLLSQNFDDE

No constants are given. Whether binding was seen depends on the method and setting. In cells and extracts the contact can be indirect. Some binding calls cover weakened binding; strength is not graded here.

For assay [1], the target named is Ataxin-3 (UniProt P54252). The experiment in a line: GST pull-down from cell extracts, immunoblot.
Assay [2] concerns the target Ataxin-3 (UniProt P54252). Description: GST pull-down from cell extracts, immunoblot with antibodies against Ataxin-3.
Assay [3] addresses vimentin (human) (UniProt P08670). Description: GST pull-down from cell extracts, immunoblot with antibodies against vimentin. (In general: Immunoblotting shows a protein as a band on a membrane.)
For assay [4], the target named is Ataxin-3 (UniProt P54252). Description: pull-down with full-length GST fusion from protein extracts, immunoblot.

Turning to “GST-UbL-B (UbL domain of human hHR23B, residues 1-78) (from UniProt P54727 1-78)”, the binding entry in assay [1], in assay [2] and in assay [3] was “binds” each time.
For the substance “GST-UbL-B^1-76 (UbL domain of hHR23B ending in Val-Val-Val-Met-Val-Thr-Lys) (from UniProt P54727 1-76)”, the binding result in assay [1] is on record as “binds”.
On to “full-length GST-tagged hHR23A (from UniProt P54725 1-363)”, for which, in assay [4], the binding result was “binds”.
As for “full-length GST-tagged hHR23B (from UniProt P54727 1-409)”, the binding result in assay [4] is listed as “binds”.
